One substance from publication doi:10.1101/2022.03.17.484815 can be followed below.

One experiment concerns the target T1, VOZ1-C-YFP (Arabidopsis) (UniProt Q9SGQ0).
T1 sequence: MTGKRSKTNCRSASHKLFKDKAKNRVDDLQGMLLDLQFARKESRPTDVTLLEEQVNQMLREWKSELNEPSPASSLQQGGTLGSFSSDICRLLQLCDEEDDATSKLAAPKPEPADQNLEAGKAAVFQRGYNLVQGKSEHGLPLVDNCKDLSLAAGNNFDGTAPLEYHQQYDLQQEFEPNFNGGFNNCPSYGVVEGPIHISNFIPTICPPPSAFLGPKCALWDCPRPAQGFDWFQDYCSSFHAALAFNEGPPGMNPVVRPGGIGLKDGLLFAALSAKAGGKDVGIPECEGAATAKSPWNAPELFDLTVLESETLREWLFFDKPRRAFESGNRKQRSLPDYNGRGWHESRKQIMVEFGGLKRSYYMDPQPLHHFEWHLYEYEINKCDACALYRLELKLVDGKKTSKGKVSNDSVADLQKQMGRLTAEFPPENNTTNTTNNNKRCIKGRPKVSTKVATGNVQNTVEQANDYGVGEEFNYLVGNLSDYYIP
The experiment can be described thus: split reporter.

Another experiment deals with T2, VOZ2-C-YFP (Arabidopsis) (UniProt Q9SLB9).
T2 sequence: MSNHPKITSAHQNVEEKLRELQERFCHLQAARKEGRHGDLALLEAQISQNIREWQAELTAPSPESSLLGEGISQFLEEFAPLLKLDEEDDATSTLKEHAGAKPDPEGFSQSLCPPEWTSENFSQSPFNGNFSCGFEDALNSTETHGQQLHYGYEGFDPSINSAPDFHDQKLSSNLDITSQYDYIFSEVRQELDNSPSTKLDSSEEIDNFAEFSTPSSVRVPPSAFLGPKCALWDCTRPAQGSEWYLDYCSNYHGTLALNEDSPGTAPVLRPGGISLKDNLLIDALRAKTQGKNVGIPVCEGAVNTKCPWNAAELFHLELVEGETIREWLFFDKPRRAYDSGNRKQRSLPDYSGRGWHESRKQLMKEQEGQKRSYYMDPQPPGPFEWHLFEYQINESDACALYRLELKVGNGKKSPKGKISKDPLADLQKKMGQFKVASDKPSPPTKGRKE
As to the kind of experiment: split reporter.

Results are given in words; binding and its absence hold for the method and conditions named. In cells and extracts the contact can be indirect. Sequences can lack the tags named with a protein.

As to “Vacuoleless Gametophytes (VLG) fused to a YFP fragment for BiFC (Arabidopsis)”, the binding result in the experiment with VOZ1-C-YFP (Arabidopsis) and with VOZ2-C-YFP (Arabidopsis) was “no binding” each time.
